Assay results from PubChem BioAssay AID2685 (National Center for Advancing Translational Sciences (NCATS), 2010).
The list shows a part of the results. The main result of the screen is listed elsewhere. These columns were measured beside it and carry no call. Most of these compounds were active or inconclusive in the main read-out, so they are no random draw. Words in brackets tell the shape of the fitted curve; partial curves, single points and poor fits give uncertain potencies.

Test: qHTS Assay for Lipid Storage Modulators in Drosophila S3 Cells;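 as to cell number change: cells counted by Cell Tracker Red CMTPX staining in the red channel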
Conditions: BODIPY lipid droplet fluorescence, 18-24 h; for cell number change: measured here: cell count max response, cells fed with added oleic acid
Summary of the method: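 Drosophila S3 cells loaded with oleic acid (400 uM, as added) and compounds at several concentrations; lipid droplets imaged by 488-nm laser-scanning cytometry, 500–530 nm intensity and object ratio to cell channel. Percent activity normalized to 20 uM Triacsin C.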

[1] = measured here: cell number channel AC50, cells fed with added oleic acid
[2] = measured here: lipid fluorescence (Fed channel) AC50, cells fed with added oleic acid

Structure (SMILES) | cell number change | AC50 [1] | AC50 [2]
Cn1nc(C(=O)NCc2cccc(F)c2)cc1C(=O)NCc1cccc(F)c1 | -54.4% | 29.1 µM [falling, single point] | 18.4 µM [falling, single point]
COc1ccc2occ(C(=O)c3ccc(N=C(C)N(C)C)cc3)c2c1 | 0.0638% | – | 6.51 µM [falling, single point]
CC(=O)c1cccc(NC(=O)CSc2nc(=O)n(CCN3CCOCC3)c3c2CCCC3)c1 | -4.95% | – | 29.1 µM [falling, single point]
O=C(O)c1ccc2c(=O)n3c(nc2c1)/C(=C/c1ccc(F)cc1)CC3 | 13% | – | 2.06 µM [rising, partial curve]
O=C(N/N=C/c1ccc(F)cc1)c1cc(-c2ccco2)nc2ccccc12 | -21.1% | – | 3.26 µM [falling, single point]
COc1ccc(Cl)cc1NC(=O)CSc1nc(NS(=O)(=O)c2ccc(C)cc2)cc(=O)[nH]1 | – | – | 0.13 µM [falling, single point]
O=C(NCc1ccccn1)c1cn(CCc2ccccc2)nn1 | -27.8% | – | 29.1 µM [falling, single point]
O=C(Nc1ccncc1)C1CCN(S(=O)(=O)c2cccs2)CC1 | 54.8% | 32.6 µM [rising, partial curve, poor fit] | –
Cc1cc2c(cc1S(=O)(=O)N1CCCC1)n(C)c(=O)c(=O)n2C | 7.78% | – | 0.92 µM [falling, full curve]
O=C(Nc1cccc(C(F)(F)F)c1)c1cc(-c2ccc(F)cc2)on1 | -19.9% | – | 0.82 µM [falling, single point]
O=C(Cn1c2[n+](c3ccc(C(F)(F)F)cc31)CCCCC2)Nc1c(F)cccc1F | -19.4% | – | –
CCCCOc1ccc(Br)cc1CSC(=N)N | -16.3% | 0.164 µM [falling, full curve, poor fit] | 5.17 µM [falling, partial curve]
COC(=O)Nc1cccn(Cc2c(Cl)cccc2Cl)c1=O | -9.98% | – | 0.291 µM [falling, full curve, poor fit]
COc1ccc(N(Cc2ccccc2)S(=O)(=O)c2cc(C(=O)O)ccc2Cl)cc1 | 35.2% | 6.51 µM [rising, full curve, poor fit] | –
CC1CCCCN1C(=O)C1CCN(c2nc(-c3ccccc3)nc3c2CCC3)CC1 (stereo unspecified) | -36.7% | 14.6 µM [falling, partial curve, poor fit] | 10.3 µM [falling, partial curve]
Cc1c(CCOC(=O)C23CC4CC(CC(C4)C2)C3)sc[n+]1CC#N | -16.8% | – | 7.31 µM [falling, partial curve, poor fit]
CCNc1nc(NC(C)C)nc(N(C#N)CCOc2ccc(Cl)cc2Cl)n1 | -4.8% | – | 1.3 µM [rising, partial curve]
COc1ccc(OC)c(NC(=O)/C=C/c2ccccc2[N+](=O)[O-])c1 | 6.43% | – | 29.1 µM [falling, single point]
CC(C(=O)c1ccccc1)[n+]1cccc(C(N)=O)c1 (stereo unspecified) | 4.63% | – | 0.184 µM [falling, full curve, poor fit]

Two entries picked at random from those above:
Structure (SMILES) | cell number change | AC50 [1] | AC50 [2]
CC(=O)c1cccc(NC(=O)CSc2nc(=O)n(CCN3CCOCC3)c3c2CCCC3)c1 | -4.95% | – | 29.1 µM [falling, single point]
O=C(N/N=C/c1ccc(F)cc1)c1cc(-c2ccco2)nc2ccccc12 | -21.1% | – | 3.26 µM [falling, single point]

More entries

Structure (SMILES) | cell number change | AC50 [1] | AC50 [2]
CCOc1ccc(OCc2ccc(C(=O)O)o2)cc1 | 19.4% | – | 3.66 µM [falling, full curve]
CC1(C)CC(=O)C(C=NC(CCC(N)=O)C(=O)O)=C(O)C1 (stereo unspecified) | -32.8% | 1.64 µM [falling, full curve] | 2.59 µM [falling, full curve]
CC(C)c1ncc(S(=O)(=O)c2ccc(C(F)(F)F)cn2)c(N)n1 | -37.3% | 29.1 µM [falling, single point] | 32.6 µM [falling, single point]
Cc1ccc(S(=O)(=O)NCCC(=O)Nc2cc(F)ccc2C)cc1C | 6.67% | – | 29.1 µM [rising, single point]
O=C(Cc1ccc(S(=O)(=O)N2CCOCC2)s1)NC1CCCCC1 | 2.63% | – | 20.6 µM [rising, partial curve, poor fit]
CCOc1ccc(Cl)cc1S(=O)(=O)n1cnc2cc(C)c(C)cc21 | 72.6% | 23.1 µM [rising, single point] | –
CCCC[C@H](CC(=O)c1ccccc1)[C@@H](OC(C)=O)C(=O)Oc1c(C(C)C)cccc1C(C)C | 5.24% | – | 8.2 µM [falling, single point]
OCc1c[nH]c2ccccc12 | 15.6% | – | 4.61 µM [rising, full curve]
O=C(CCCc1ccccc1)Nc1cccnc1 | 74.3% | 20.6 µM [rising, partial curve] | –
O=[N+]([O-])c1ccc(N/N=C\c2cccn2-c2ccccc2)nc1 | – | – | 20.6 µM [falling, single point]
CCOc1ccc(-n2nnc3c(=O)n(CC(=O)NCc4ccco4)cnc32)cc1 | 52.9% | 11.6 µM [rising, partial curve, poor fit] | 20.6 µM [rising, single point]
O=C1CN(C(=O)COc2ccc(Cl)cc2Cl)c2ccccc2N1 | 29.5% | – | 5.17 µM [rising, single point]
CCOc1ccc(NC(=S)c2ccc3ccccc3n2)cc1 | -14% | – | 18.4 µM [falling, single point]
O=C(COC(=O)c1ccc(O)cc1O)NC(=O)NCc1ccccc1 | -23.6% | – | 0.58 µM [rising, single point]
CCOC(=O)c1c(C)[nH]c(C(=O)OCC(=O)Nc2ccc(Cl)cn2)c1C | 13.8% | – | –
Cc1cc(C)c(NC(=O)CNC(=O)c2ccccc2OCc2c(C)noc2C)c(C)c1 | 23% | – | 5.8 µM [rising, partial curve]
CC(NC(=O)c1ccc2ccccc2n1)c1ccccc1 (stereo unspecified) | -15.4% | – | –
COc1cccc(C2C(=O)c3ccccc3C2=O)c1 | -46.9% | 29.1 µM [falling, single point] | 29.1 µM [falling, single point]
